Data set [1] deals with MDA-MB-436 cells (BRCA1 mutation). Nature of the data set: Anti-proliferation assay on MDA-MB-436 cells (BRCA1 mutation). Conditions: read-out: IC50, proliferation inhibition on MDA-MB-436 cells (BRCA1 mutation); incubated for 7 days, chemiluminescent cell viability.
A further data set addresses PARP2 (Homo sapiens (Human), UniProt Q9UGN5). Nature of the data set: Binding activity between compound and PARP2, fluorescence polarization assay. Conditions: read-out: PARP2 IC50, 3 nM PARP2, 5 nM fluorescent probe, 4 hours at room temperature.
In the next data set the test system is MDR1-MDCK II cell line. The experiment in a line: Permeability evaluation on MDR1-MDCK II cell line. In kind it is in vitro ADME.

By UniProt entry, the sequences of proteins in these tests, tags left out.
UniProt Q9UGN5, whole entry: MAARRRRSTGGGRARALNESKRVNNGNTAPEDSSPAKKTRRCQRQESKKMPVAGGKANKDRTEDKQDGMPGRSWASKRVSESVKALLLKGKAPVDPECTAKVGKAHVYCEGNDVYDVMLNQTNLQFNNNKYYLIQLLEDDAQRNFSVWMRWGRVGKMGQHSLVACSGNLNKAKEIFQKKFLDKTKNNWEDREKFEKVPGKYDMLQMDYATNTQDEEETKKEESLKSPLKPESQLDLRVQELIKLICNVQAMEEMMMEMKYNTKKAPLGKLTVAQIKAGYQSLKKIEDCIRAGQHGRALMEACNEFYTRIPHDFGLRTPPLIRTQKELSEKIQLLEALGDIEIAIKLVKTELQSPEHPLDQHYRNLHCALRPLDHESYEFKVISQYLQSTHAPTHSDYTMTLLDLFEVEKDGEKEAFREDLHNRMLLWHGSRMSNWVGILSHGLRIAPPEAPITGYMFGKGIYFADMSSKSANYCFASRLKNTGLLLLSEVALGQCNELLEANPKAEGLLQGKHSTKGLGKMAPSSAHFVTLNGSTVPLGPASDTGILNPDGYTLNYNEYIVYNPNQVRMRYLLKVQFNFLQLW

The match of structure and compound is tentative.

On to `CNC(=O)c1ccc(N2CCN(Cc3ccc4c([nH]c(=O)c5cc(F)cnc54)c3F)CC2)c(F)n1`, for which the IC50 in data set [1] was 0.56 nM; at PARP2, > 20000 nM.
Turning to `CNC(=O)c1ccc(N2CCN(Cc3ccc4c([nH]c(=O)c5cccnc54)c3F)CC2)c(Cl)n1`, the Permeability conclusion entry in the data set with MDR1-MDCK II cell line was “High”. Besides, in the data set on MDR1-MDCK II cell line (2.00 μM, 150 minutes, pH 7.40), the “Permeability Papp A to B” value is on record as 10.6 10^−6 cm/s and the “Permeability Papp B to A” value is reported as 7.2 10^−6 cm/s. The IC50 in data set [1] was determined as 0.41 nM.
